Patent publication US10450297B2, “Sulfonyl amide derivatives for the treatment of abnormal cell growth” (Pfizer, Inc., priority 2007, dated 2019)
Structures were worked out from names or drawings and are uncertain.

Protein sequences, listed by entry. Tags and fused reporters are not part of them. Residues count along the entry.
UniProt Q05397, 410-689 limits assumed: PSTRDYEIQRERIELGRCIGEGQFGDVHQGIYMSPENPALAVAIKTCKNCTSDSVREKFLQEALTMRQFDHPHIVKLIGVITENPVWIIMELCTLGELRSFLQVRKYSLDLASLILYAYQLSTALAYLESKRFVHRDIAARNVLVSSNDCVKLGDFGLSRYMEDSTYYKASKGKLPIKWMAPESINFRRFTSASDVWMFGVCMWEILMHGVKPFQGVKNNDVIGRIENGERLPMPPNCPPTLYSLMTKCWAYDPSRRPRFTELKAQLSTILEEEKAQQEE

Molecular target: FAK kinase (catalytic construct FAK(410-689)) (Homo sapiens (Human), UniProt Q05397)
Assay: FAKcd kinase ELISA (inhibition of poly-glu-tyr phosphorylation by FAK(410-689))
Format: biochemical
Details: read-out: FAK IC50, 50 μM final ATP

## CN(c1ncccc1CNc1nc(Nc2ccnc(Cl)c2)ncc1C(F)(F)F)S(C)(=O)=O
  IC50: 1.92 nM
